The values that follow come from PMC10781630, “Structural basis of Gabija anti-phage defence and viral immune evasion” (Nature, 2023).

These are yes or no findings as the source states them, for the method shown. Some binding calls cover weakened binding; strength is not graded here. Tags and fused reporters may be left off the sequences shown.

The target of assay [1] is T1, 6×His-SUMO2-GajA (Bacillus cereus VD045), subunit of the SUMO2-tagged GajAB complex used for cryo-EM (Bacillus cereus VD045) (UniProt J8H9C1).
T1 sequence: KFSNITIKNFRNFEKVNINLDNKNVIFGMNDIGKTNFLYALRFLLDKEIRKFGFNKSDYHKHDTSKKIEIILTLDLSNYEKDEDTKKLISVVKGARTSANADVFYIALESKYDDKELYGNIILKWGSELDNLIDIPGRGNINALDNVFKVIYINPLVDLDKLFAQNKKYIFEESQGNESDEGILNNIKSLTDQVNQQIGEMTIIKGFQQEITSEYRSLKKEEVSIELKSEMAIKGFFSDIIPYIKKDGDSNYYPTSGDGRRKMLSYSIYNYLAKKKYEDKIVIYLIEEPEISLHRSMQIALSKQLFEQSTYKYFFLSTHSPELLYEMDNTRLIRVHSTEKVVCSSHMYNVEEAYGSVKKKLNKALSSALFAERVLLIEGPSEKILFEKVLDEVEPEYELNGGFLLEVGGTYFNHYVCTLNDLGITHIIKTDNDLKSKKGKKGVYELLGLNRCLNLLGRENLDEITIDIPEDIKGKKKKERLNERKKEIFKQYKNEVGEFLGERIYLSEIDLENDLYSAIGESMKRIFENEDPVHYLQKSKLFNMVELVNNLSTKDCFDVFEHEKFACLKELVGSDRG
Description: cryo-EM structure; SUMO2-GajAB–Gad1 (Phi3T) co-complex, 1 mg ml^-1, 2.57 Å D2 symmetry map; both purified.

The target of assay [2] is T2, SUMO2-tagged GajAB complex (Bacillus cereus VD045), 4:4 (Bacillus cereus VD045) (UniProt J8H9C1+J8HQ06).
T2 sequence 1: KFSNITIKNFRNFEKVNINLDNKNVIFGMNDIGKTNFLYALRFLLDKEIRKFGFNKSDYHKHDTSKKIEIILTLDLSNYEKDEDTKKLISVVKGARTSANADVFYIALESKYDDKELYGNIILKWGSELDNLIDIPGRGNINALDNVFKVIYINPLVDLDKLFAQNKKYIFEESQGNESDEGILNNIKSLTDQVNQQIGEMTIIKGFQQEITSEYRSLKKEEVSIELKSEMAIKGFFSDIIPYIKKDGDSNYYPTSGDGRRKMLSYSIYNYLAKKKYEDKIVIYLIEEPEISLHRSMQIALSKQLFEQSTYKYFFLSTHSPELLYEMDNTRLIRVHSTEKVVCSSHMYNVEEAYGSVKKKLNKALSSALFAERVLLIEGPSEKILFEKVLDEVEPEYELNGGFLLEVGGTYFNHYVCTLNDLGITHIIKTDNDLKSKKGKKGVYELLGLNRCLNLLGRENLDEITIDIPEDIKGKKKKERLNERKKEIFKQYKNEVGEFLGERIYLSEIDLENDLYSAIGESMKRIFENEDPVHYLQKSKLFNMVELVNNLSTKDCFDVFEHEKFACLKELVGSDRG
T2 sequence 2: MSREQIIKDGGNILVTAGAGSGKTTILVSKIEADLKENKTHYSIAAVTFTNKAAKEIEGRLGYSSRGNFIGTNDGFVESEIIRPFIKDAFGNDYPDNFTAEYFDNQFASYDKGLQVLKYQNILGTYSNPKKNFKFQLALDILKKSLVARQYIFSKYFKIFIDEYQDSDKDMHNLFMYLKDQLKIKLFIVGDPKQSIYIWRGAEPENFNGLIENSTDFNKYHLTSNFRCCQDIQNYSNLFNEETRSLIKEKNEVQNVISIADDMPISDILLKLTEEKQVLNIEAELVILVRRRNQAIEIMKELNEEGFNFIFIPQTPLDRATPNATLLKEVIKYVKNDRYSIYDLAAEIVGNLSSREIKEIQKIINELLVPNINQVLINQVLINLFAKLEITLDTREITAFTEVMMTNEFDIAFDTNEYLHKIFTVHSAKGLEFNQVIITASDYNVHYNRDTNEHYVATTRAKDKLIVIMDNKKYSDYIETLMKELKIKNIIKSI
The assay is described as above.

Assay [3] deals with T3, Bacillus cereus VD045 GajB, untagged, co-expressed with tagged GajA (Bacillus cereus VD045) (UniProt J8HQ06).
T3 sequence: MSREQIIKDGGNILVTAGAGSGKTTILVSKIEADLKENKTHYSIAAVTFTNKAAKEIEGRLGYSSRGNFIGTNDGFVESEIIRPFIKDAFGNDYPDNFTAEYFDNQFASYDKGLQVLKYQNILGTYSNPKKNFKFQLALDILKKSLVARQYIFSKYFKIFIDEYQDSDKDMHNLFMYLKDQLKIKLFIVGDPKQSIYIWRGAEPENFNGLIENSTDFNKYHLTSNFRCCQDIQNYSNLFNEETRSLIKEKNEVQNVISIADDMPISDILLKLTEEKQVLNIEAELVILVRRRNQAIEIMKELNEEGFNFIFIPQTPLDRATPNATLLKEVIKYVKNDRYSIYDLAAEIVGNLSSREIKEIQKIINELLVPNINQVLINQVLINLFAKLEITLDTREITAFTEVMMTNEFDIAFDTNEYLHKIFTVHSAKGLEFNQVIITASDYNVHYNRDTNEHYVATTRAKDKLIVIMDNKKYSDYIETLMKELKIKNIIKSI
The assay is described as above.

In assay [4] the target is T2, SUMO2-tagged GajAB complex (Bacillus cereus VD045), 4:4 (Bacillus cereus VD045). Briefly: SEC; co-expressed and co-purified; 16/600 S200 for SUMO2-tagged BcGajAB with or without Phi3T Gad1, 16/600 S300 for BcGajAB with or without Shewanella phage 1/4 Gad1; SDS–PAGE of the purified complexes; both purified. For orientation: SEC sorts molecules by how far they enter the pores of the column.

In assay [5] the target is T4, Bacillus cereus VD045 GajA, co-expressed with GajB, tag removed (subunit of the GajAB complex) (Bacillus cereus VD045) (UniProt J8H9C1).
T4 sequence: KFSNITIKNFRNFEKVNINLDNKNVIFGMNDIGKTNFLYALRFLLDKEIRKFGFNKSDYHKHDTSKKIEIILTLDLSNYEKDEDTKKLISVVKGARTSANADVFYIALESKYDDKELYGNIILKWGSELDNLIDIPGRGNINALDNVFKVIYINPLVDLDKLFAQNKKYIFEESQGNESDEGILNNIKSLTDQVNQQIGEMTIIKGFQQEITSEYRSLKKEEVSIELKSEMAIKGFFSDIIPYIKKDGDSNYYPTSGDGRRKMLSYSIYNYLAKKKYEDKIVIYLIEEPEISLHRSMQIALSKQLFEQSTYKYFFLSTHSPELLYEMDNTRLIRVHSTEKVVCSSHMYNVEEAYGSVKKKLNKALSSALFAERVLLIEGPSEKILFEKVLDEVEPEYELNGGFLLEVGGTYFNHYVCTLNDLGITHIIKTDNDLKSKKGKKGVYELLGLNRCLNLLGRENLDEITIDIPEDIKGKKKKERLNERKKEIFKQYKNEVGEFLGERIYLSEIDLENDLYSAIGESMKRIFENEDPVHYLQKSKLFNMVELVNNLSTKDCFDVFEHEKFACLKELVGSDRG
Description: crystal structure; co-expressed and co-purified GajAB, 3.0 Å; hanging drop, 18 °C, 100 mM HEPES-NaOH pH 7.5, 2.4% PEG-400, 2.2 M ammonium sulfate; both purified.

B1: Bacillus phage Phi3T Gad1 (Gabija anti-defence 1) (natural protein)
chain: MKLIGIKTSNCFLVSDNIEGKRYFHSQLDELLFDGKRATETYKSDWFKLEKEPSVIEKQMPAKKINHRYELKEGFQESELTPKVIKASYIGEDSEYYEVKGLYDLKFEEIPQQNEKIEFEMNVIEEIDGELKLQSHNFNLNYNLLDRIQTHPMLLETKPCYLSQEESYKIIRNHIKANINPKFARITSDYDFCLTVVKVLELYKPHEYIVDLNAMYKRRKPKLEKRFQTKREVEIYKVAPKAYQSYPIVEPFSGKDVEDLKSNIKKFLDDLMAKINEPLVECKCCKGRGVILNEN
notes: Gad1, Bacillus phage Phi3T, 35 kDa; Eight copies stand in the 4:4:8 GajAB–Gad1 complex; source: E. coli, co-expressed with SUMO2-GajAB (pBAD vector), co-purified (Ni-NTA, SEC)
On to B1, for which the binding result in assay [1] is given as “binds”; in assay [2], “binds”; in assay [3] it was “binds weakly”; in assay [4], “binds”.

B2: Bacillus cereus VD045 GajB, untagged, co-expressed with tagged GajA (enzyme)
chain: MSREQIIKDGGNILVTAGAGSGKTTILVSKIEADLKENKTHYSIAAVTFTNKAAKEIEGRLGYSSRGNFIGTNDGFVESEIIRPFIKDAFGNDYPDNFTAEYFDNQFASYDKGLQVLKYQNILGTYSNPKKNFKFQLALDILKKSLVARQYIFSKYFKIFIDEYQDSDKDMHNLFMYLKDQLKIKLFIVGDPKQSIYIWRGAEPENFNGLIENSTDFNKYHLTSNFRCCQDIQNYSNLFNEETRSLIKEKNEVQNVISIADDMPISDILLKLTEEKQVLNIEAELVILVRRRNQAIEIMKELNEEGFNFIFIPQTPLDRATPNATLLKEVIKYVKNDRYSIYDLAAEIVGNLSSREIKEIQKIINELLVPNINQVLINQVLINLFAKLEITLDTREITAFTEVMMTNEFDIAFDTNEYLHKIFTVHSAKGLEFNQVIITASDYNVHYNRDTNEHYVATTRAKDKLIVIMDNKKYSDYIETLMKELKIKNIIKSI
notes: GajB, Bacillus cereus VD045, IMG ID 2519684553; also called BcGajB; source: co-purified (Ni-NTA, SEC) or in lysate
B2: the binding result in assay [1] and in assay [5] was “binds” throughout.
